Among the data in paper PMC6207757 are binding values, retold here.

No constants are given. Whether binding was seen depends on the method and setting. In cells and extracts the contact can be indirect. A yes stands for co-enrichment or nearness to the bait. Other partners may have been found.

The experiment has as its target Flag-MPP9 (M-Phase Phosphoprotein 9) (not stated (human or mouse cDNA cloned)). As to the kind of experiment: affinity purification with mass spectrometry; anti-Flag immunoprecipitation from lysates (ELB buffer) of HEK293T cells overexpressing Flag-MPP9; bands of a silver-stained gel digested with trypsin, Orbitrap Elite.

B1: Kinesin Family Member 24 (KIF24) (protein, UniProt Q5T7B8 1-1368)
chain: MASWLYECLCEAELAQYYSHFTALGLQKIDELAKITMKDYSKLGVHDMNDRKRLFQLIKIIKIMQEEDKAVSIPERHLQTSSLRIKSQELRSGPRRQLNFDSPADNKDRNASNDGFEMCSLSDFSANEQKSTYLKVLEHMLPDDSQYHTKTGILNATAGDSYVQTEISTSLFSPNYLSAILGDCDIPIIQRISHVSGYNYGIPHSCIRQNTSEKQNPWTEMEKIRVCVRKRPLGMREVRRGEINIITVEDKETLLVHEKKEAVDLTQYILQHVFYFDEVFGEACTNQDVYMKTTHPLIQHIFNGGNATCFAYGQTGAGKTYTMIGTHENPGLYALAAKDIFRQLEVSQPRKHLFVWISFYEIYCGQLYDLLNRRKRLFAREDSKHMVQIVGLQELQVDSVELLLEVILKGSKERSTGATGVNADSSRSHAVIQIQIKDSAKRTFGRISFIDLAGSERAADARDSDRQTKMEGAEINQSLLALKECIRALDQEHTHTPFRQSKLTQVLKDSFIGNAKTCMIANISPSHVATEHTLNTLRYADRVKELKKGIKCCTSVTSRNRTSGNSSPKRIQSSPGALSEDKCSPKKVKLGFQQSLTVAAPGSTRGKVHPLTSHPPNIPFTSAPKVSGKRGGSRGSPSQEWVIHASPVKGTVRSGHVAKKKPEESAPLCSEKNRMGNKTVLGWESRASGPGEGLVRGKLSTKCKKVQTVQPVQKQLVSRVELSFGNAHHRAEYSQDSQRGTPARPASEAWTNIPPHQKEREEHLRFYHQQFQQPPLLQQKLKYQPLKRSLRQYRPPEGQLTNETPPLFHSYSENHDGAQVEELDDSDFSEDSFSHISSQRATKQRNTLENSEDSFFLHQTWGQGPEKQVAERQQSLFSSPRTGDKKDLTKSWVDSRDPINHRRAALDHSCSPSKGPVDWSRENSTSSGPSPRDSLAEKPYCSQVDFIYRQERGGGSSFDLRKDASQSEVSGENEGNLPSPEEDGFTISLSHVAVPGSPDQRDTVTTPLREVSADGPIQVTSTVKNGHAVPGEDPRGQLGTHAEYASGLMSPLTMSLLENPDNEGSPPSEQLVQDGATHSLVAESTGGPVVSHTVPSGDQEAALPVSSATRHLWLSSSPPDNKPGGDLPALSPSPIRQHPADKLPSREADLGEACQSRETVLFSHEHMGSEQYDADAEETGLDGSWGFPGKPFTTIHMGVPHSGPTLTPRTGSSDVADQLWAQERKHPTRLGWQEFGLSTDPIKLPCNSENVTWLKPRPISRCLARPSSPLVPSCSPKTAGTLRQPTLEQAQQVVIRAHQEQLDEMAELGFKEETLMSQLASNDFEDFVTQLDEIMVLKSKCIQSLRSQLQLYLTCHGPTAAPEGTVPS
For B1, the binding result is “binds”.
